Measured values as given in US20200123175A1, “NOVEL ISOTHIAZOLO-BASED BICYCLES, PROCESSES FOR THEIR PREPARATION AND THEIR USE AS HERBICIDES AND/OR PLANT GROWTH REGULATORS” (Bayer CropScience Aktiengesellschaft, priority 2017, published 2020).
Where two headings read alike, the source gives them in different places. Some entries share one result that the patent states for a list of compounds.

Experiments:
Uromyces appendiculatus = assay: In vivo preventive test on Uromyces appendiculatus (bean rust); details: bean plants, evaluated 11 days after the inoculation
Septoria tritici = assay: In vivo preventive test on Septoria tritici (leaf spot on wheat); details: wheat plants, evaluated 24 days after the inoculation
Alternaria brassicae = assay: In vivo preventive test on Alternaria brassicae (leaf spot on radish or cabbage); details: 500 ppm of active ingredient; radish or cabbage plants; evaluated 6 days after the inoculation
Phytophthora infestans = assay type: in vivo; details: tomato plants, evaluated 5 days after the inoculation
Pyrenophora teres = assay: In vivo preventive test on Pyrenophora teres (net blotch on barley); details: 500 ppm of active ingredient; barley plants; evaluated 14 days after the inoculation
Description: (§1) 5) Example: In Vivo Preventive Test on Pyrenophora teres (Net Blotch on Barley) [table] The active ingredients were made soluble and homogenized in a mixture of Dimethyl sulfoxide/Acetone//Tween® 80 and then diluted in water to the desired concentration. The young plants of barley were treated by spraying the active ingredient prepared as described above. Control plants were treated only with an aqueous solution of Acetone/Dimethyl sulfoxide/Tween® 80. After 24 hours, the plants were contaminated by spraying the leaves with an aqueous suspension of Pyrenophora teres spores.

Sphaerotheca fuliginea = assay: In vivo preventive test on Sphaerotheca fuliginea (powdery mildew on cucurbits); details: gherkin plants, evaluated 15 days after the inoculation
Puccinia recondita = assay: In vivo preventive test on Puccinia recondita (brown rust on wheat); details: 500 ppm of active ingredient; wheat plants; evaluated 11 days after the inoculation
Description: as §1, with “4)” for “5)”, “Puccinia recondita (Brown Rust” for “Pyrenophora teres (Net Blotch”, “Wheat)” for “Barley)”, “wheat” for “barley”, “Puccinia recondita” for “Pyrenophora teres”

Botrytis cinerea = assay: In vivo preventive test on Botrytis cinerea (grey mould); details: gherkin plants, evaluated 4 to 5 days after the inoculation

Measured: efficacy

Nc1nsc2c(=O)n(Cc3ccc(F)cc3F)cnc12 [Example I-12]
at least 70%: Uromyces appendiculatus; 500 ppm of active ingredient | Septoria tritici; 500 ppm of active ingredient | Alternaria brassicae | Phytophthora infestans; 100 ppm of active ingredient | Pyrenophora teres | Sphaerotheca fuliginea; 500 ppm of active ingredient | Puccinia recondita

Nc1nsc2c(=O)n(CC3=CCCCC3)cnc12 [Example I-29]
at least 70%: Uromyces appendiculatus; 500 ppm of active ingredient | Phytophthora infestans; 500 ppm of active ingredient | Botrytis cinerea; 500 ppm of active ingredient

Nc1nsc2c(=O)n(CC3CCCCCC3)cnc12 [Example I-31]
at least 70%: Phytophthora infestans; 100 ppm of active ingredient | Botrytis cinerea; 500 ppm of active ingredient | Pyrenophora teres | Puccinia recondita

O=C(Nc1nsc2c(=O)n(CC3CCCCC3)cnc12)c1cc(Cl)cc(Cl)c1 [Example I-20]
at least 70%: Septoria tritici; 500 ppm of active ingredient | Phytophthora infestans; 500 ppm of active ingredient | Pyrenophora teres

O=C(Nc1nsc2c(=O)n(CC3CCCCC3)cnc12)C1CC1 [Example I-07]
at least 70%: Uromyces appendiculatus; 500 ppm of active ingredient | Septoria tritici; 100 ppm of active ingredient | Phytophthora infestans; 100 ppm of active ingredient | Pyrenophora teres | Sphaerotheca fuliginea; 100 ppm of active ingredient

Nc1nsc2c1NCN(CC1CCCCC1)C2=O [Example I-61]
at least 70%: Uromyces appendiculatus; 100 ppm of active ingredient | Alternaria brassicae | Phytophthora infestans; 100 ppm of active ingredient | Pyrenophora teres | Puccinia recondita

CC(=O)Nc1nsc2c(=O)n(CC3CCCCC3)cnc12 [Example I-55]
at least 70%: Uromyces appendiculatus; 500 ppm of active ingredient | Alternaria brassicae | Phytophthora infestans; 100 ppm of active ingredient | Pyrenophora teres | Sphaerotheca fuliginea; 100 ppm of active ingredient | Puccinia recondita

O=C(Nc1nsc2c(=O)n(Cc3ccc(F)cc3F)cnc12)C(F)(F)C(F)(F)F [Example I-78]
at least 70%: Phytophthora infestans; 500 ppm of active ingredient | Botrytis cinerea; 100 ppm of active ingredient | Sphaerotheca fuliginea; 100 ppm of active ingredient

Nc1nsc2c1NCN(Cc1c(F)cc(F)cc1F)C2=O [Example I-41]
at least 70%: Uromyces appendiculatus; 500 ppm of active ingredient | Septoria tritici; 500 ppm of active ingredient | Alternaria brassicae | Phytophthora infestans; 100 ppm of active ingredient | Botrytis cinerea; 500 ppm of active ingredient | Puccinia recondita

Nc1nsc2c(=O)n(CC3CCCC3)cnc12 [Example I-01]
at least 70%: Phytophthora infestans; 100 ppm of active ingredient | Botrytis cinerea; 500 ppm of active ingredient | Pyrenophora teres | Sphaerotheca fuliginea; 500 ppm of active ingredient

Nc1nsc2c1NCN(CC1CCCCO1)C2=O (centres unmarked) [Example I-43]
at least 70%: Uromyces appendiculatus; 500 ppm of active ingredient | Septoria tritici; 100 ppm of active ingredient | Phytophthora infestans; 100 ppm of active ingredient | Botrytis cinerea; 500 ppm of active ingredient | Puccinia recondita

Nc1nsc2c1NCN(Cc1ccc(F)cc1F)C2=O [Example I-42]
at least 70%: Uromyces appendiculatus; 500 ppm of active ingredient | Septoria tritici; 100 ppm of active ingredient | Alternaria brassicae | Phytophthora infestans; 100 ppm of active ingredient | Botrytis cinerea; 500 ppm of active ingredient | Puccinia recondita

COC(=O)C(=O)Nc1nsc2c(=O)n(Cc3ccc(F)cc3F)cnc12 [Example I-81]
at least 70%: Septoria tritici; 500 ppm of active ingredient | Phytophthora infestans; 500 ppm of active ingredient | Botrytis cinerea; 500 ppm of active ingredient | Sphaerotheca fuliginea; 100 ppm of active ingredient

O=C(CC(F)(F)F)Nc1nsc2c(=O)n(Cc3ccc(F)cc3F)cnc12 [Example I-82]
at least 70%: Septoria tritici; 100 ppm of active ingredient | Phytophthora infestans; 500 ppm of active ingredient | Botrytis cinerea; 500 ppm of active ingredient | Pyrenophora teres

O=C(Nc1nsc2c(=O)n(CC3CCCCC3)cnc12)c1ccccc1Cl [Example I-24]
at least 70%: Phytophthora infestans; 500 ppm of active ingredient | Pyrenophora teres

O=C(Nc1nsc2c(=O)n(Cc3ccc(F)cc3F)cnc12)C(F)(Cl)C(F)(F)F (centres unmarked) [Example I-77]
at least 70%: Septoria tritici; 500 ppm of active ingredient | Phytophthora infestans; 500 ppm of active ingredient | Botrytis cinerea; 500 ppm of active ingredient

Nc1nsc2c(=O)n(CC3CCCCC3)cnc12 [Example I-17]
at least 70%: Uromyces appendiculatus; 500 ppm of active ingredient | Septoria tritici; 100 ppm of active ingredient | Phytophthora infestans; 100 ppm of active ingredient | Pyrenophora teres | Sphaerotheca fuliginea; 100 ppm of active ingredient | Puccinia recondita

O=C(Nc1nsc2c(=O)n(CC3CCCCC3)cnc12)c1ccc(Cl)cc1 [Example I-18]
at least 70%: Septoria tritici; 500 ppm of active ingredient | Phytophthora infestans; 500 ppm of active ingredient | Pyrenophora teres

Nc1nsc2c(=O)n(CC3CCCCO3)cnc12 (centres unmarked) [Example I-30]
at least 70%: Uromyces appendiculatus; 500 ppm of active ingredient | Phytophthora infestans; 100 ppm of active ingredient | Botrytis cinerea; 500 ppm of active ingredient | Puccinia recondita
